These are yes or no findings as the source states them, for the method shown. Binding seen in cells or lysates may run through a third protein. These calls come from enrichment with a bait or labelling near it, and not all partners need be listed. Where a sequence is shown, tags or fusion partners need not be part of it.

In this experiment the target is T1, SHMT2-BirA*-Flag (mouse) (UniProt Q9CZN7).
T1 sequence: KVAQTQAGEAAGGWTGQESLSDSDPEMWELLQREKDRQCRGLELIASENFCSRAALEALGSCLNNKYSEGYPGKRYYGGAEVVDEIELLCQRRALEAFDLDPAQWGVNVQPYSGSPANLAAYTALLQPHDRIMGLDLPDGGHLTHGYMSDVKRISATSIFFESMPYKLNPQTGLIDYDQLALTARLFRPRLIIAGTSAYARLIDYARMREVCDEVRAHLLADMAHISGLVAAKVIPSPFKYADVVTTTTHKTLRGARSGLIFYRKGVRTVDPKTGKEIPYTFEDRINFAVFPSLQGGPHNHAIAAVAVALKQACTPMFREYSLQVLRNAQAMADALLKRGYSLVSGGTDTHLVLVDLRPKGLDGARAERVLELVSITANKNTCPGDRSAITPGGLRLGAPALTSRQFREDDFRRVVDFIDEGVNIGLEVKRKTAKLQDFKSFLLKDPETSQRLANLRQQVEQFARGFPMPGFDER
In words: proximity labelling; BioID in HeLa cells with Tet-induced SHMT2-BirA*-Flag; biotinylated proteins purified on immobilized streptavidin, trypsin digestion, MS; compared with BirA*-Flag alone and CHCHD2-BirA*-Flag (n = 3; >32-fold, p <0.05).

B1: Mitochondrial genome maintenance exonuclease 1 (protein, UniProt Q9BQP7 1-344)
chain: MKMKLFQTICRQLRSSKFSVESAALVAFSTSSYSCGRKKKVNPYEEVDQEKYSNLVQSVLSSRGVAQTPGSVEEDALLCGPVSKHKLPNQGEDRRVPQNWFPIFNPERSDKPNASDPSVPLKIPLQRNVIPSVTRVLQQTMTKQQVFLLERWKQRMILELGEDGFKEYTSNVFLQGKRFHEALESILSPQETLKERDENLLKSGYIESVQHILKDVSGVRALESAVQHETLNYIGLLDCVAEYQGKLCVIDWKTSEKPKPFIQSTFDNPLQVVAYMGAMNHDTNYSFQVQCGLIVVAYKDGSPAHPHFMDAELCSQYWTKWLLRLEEYTEKKKNQNIQKPEYSE
With B1, the binding entry is reported as “binds”.

B2: Malate dehydrogenase, mitochondrial (protein, UniProt P40926 25-338)
chain: AKVAVLGASGGIGQPLSLLLKNSPLVSRLTLYDIAHTPGVAADLSHIETKAAVKGYLGPEQLPDCLKGCDVVVIPAGVPRKPGMTRDDLFNTNATIVATLTAACAQHCPEAMICVIANPVNSTIPITAEVFKKHGVYNPNKIFGVTTLDIVRANTFVAELKGLDPARVNVPVIGGHAGKTIIPLISQCTPKVDFPQDQLTALTGRIQEAGTEVVKAKAGAGSATLSMAYAGARFVFSLVDAMNGKEGVVECSFVKSQETECTYFSTPLLLGKKGIEKNLGIGKVSSFEEKMISDAIPELKASIKKGEDFVKTLK
For the molecule B2, the binding entry is reported as “binds”.

B3: Complex III assembly factor LYRM7 (protein, UniProt Q5U5X0 1-104)
chain: MGRAVKVLQLFKTLHRTRQQVFKNDARALEAARIKINEEFKNNKSETSSKKIEELMKIGSDVELLLRTSVIQGIHTDHNTLKLVPRKDLLVENVPYCDAPTQKQ
Regarding B3, the binding result is reported as “binds”.

B4: NAD(P) transhydrogenase, mitochondrial (protein, UniProt Q13423 44-1086)
chain: CKAPVKPGIPYKQLTVGVPKEIFQNEKRVALSPAGVQNLVKQGFNVVVESGAGEASKFSDDHYRVAGAQIQGAKEVLASDLVVKVRAPMVNPTLGVHEADLLKTSGTLISFIYPAQNPELLNKLSQRKTTVLAMDQVPRVTIAQGYDALSSMANIAGYKAVVLAANHFGRFFTGQITAAGKVPPAKILIVGGGVAGLASAGAAKSMGAIVRGFDTRAAALEQFKSLGAEPLEVDLKESGEGQGGYAKEMSKEFIEAEMKLFAQQCKEVDILISTALIPGKKAPVLFNKEMIESMKEGSVVVDLAAEAGGNFETTKPGELYIHKGITHIGYTDLPSRMATQASTLYSNNITKLLKAISPDKDNFYFDVKDDFDFGTMGHVIRGTVVMKDGKVIFPAPTPKNIPQGAPVKQKTVAELEAEKAATITPFRKTMSTASAYTAGLTGILGLGIAAPNLAFSQMVTTFGLAGIVGYHTVWGVTPALHSPLMSVTNAISGLTAVGGLALMGGHLYPSTTSQGLAALAAFISSVNIAGGFLVTQRMLDMFKRPTDPPEYNYLYLLPAGTFVGGYLAALYSGYNIEQIMYLGSGLCCVGALAGLSTQGTARLGNALGMIGVAGGLAATLGVLKPGPELLAQMSGAMALGGTIGLTIAKRIQISDLPQLVAAFHSLVGLAAVLTCIAEYIIEYPHFATDAAANLTKIVAYLGTYIGGVTFSGSLIAYGKLQGLLKSAPLLLPGRHLLNAGLLAASVGGIIPFMVDPSFTTGITCLGSVSALSAVMGVTLTAAIGGADMPVVITVLNSYSGWALCAEGFLLNNNLLTIVGALIGSSGAILSYIMCVAMNRSLANVILGGYGTTSTAGGKPMEISGTHTEINLDNAIDMIREANSIIITPGYGLCAAKAQYPIADLVKMLTEQGKKVRFGIHPVAGRMPGQLNVLLAEAGVPYDIVLEMDEINHDFPDTDLVLVIGANDTVNSAAQEDPNSIIAGMPVLEVWKSKQVIVMKRSLGVGYAAVDNPIFYKPNTAMLLGDAKKTCDALQAKVRESYQK
For the molecule B4, the binding result is on record as “binds”.

The values are drawn from paper PMC7480864.
